{
  "source": "paper PMC7862700",
  "note": "This is a selection; strong and weak results do not stand in their true shares. This is one part of the list. For part of these data: The exact form of the protein is not confirmed.",
  "data": [
    {"target": "T1, GABPA (UniProt Q06546)", "T1 sequence": "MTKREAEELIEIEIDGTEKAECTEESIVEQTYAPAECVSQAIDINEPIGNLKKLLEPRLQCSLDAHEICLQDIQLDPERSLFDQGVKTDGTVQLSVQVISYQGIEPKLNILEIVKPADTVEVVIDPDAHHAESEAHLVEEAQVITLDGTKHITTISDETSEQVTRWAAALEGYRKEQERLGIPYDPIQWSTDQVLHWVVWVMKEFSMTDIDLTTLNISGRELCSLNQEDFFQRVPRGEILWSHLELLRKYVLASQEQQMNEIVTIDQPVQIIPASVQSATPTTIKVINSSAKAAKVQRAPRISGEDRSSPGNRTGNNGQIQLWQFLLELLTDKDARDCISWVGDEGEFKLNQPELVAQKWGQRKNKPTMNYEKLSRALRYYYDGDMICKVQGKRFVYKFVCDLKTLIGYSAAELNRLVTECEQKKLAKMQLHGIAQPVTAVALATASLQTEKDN", "test": "DAPPL (digital affinity profiling via proximity ligation, sequencing)", "conditions": "10 mM Tris-HCl pH 7.5, 50 mM NaCl, 1 mM DTT, 4% glycerol, room temperature, 30 min; GST-TFs on glutathione beads, 16-mer random dsDNA library, 0.1% …; high values mean tight binding; double strand, one strand shown; scale: fold enrichment (6-mer frequency, TF over GST control)", "values": [
      {"sequence": "AAGGAA", "binding signal": 1.2},
      {"sequence": "ATCTCT", "binding signal": 1.33},
      {"sequence": "AATCCC", "binding signal": 1.38},
      {"sequence": "CTAATC", "binding signal": 1.34},
      {"sequence": "CTGATC", "binding signal": 1.4},
      {"sequence": "CGCTTC", "binding signal": 1.99},
      {"sequence": "ACGAAC", "binding signal": 1.19},
      {"sequence": "ACTTTT", "binding signal": 1.34},
      {"sequence": "GATCTC", "binding signal": 1.16},
      {"sequence": "ATAGTA", "binding signal": 1.19},
      {"sequence": "CGTCCC", "binding signal": 1.42},
      {"sequence": "TGGCTT", "binding signal": 1.33},
      {"sequence": "TTTGGC", "binding signal": 1.25},
      {"sequence": "TTCACC", "binding signal": 1.34},
      {"sequence": "CTCATG", "binding signal": 1.26},
      {"sequence": "ATGGGT", "binding signal": 1.28},
      {"sequence": "TGCTTT", "binding signal": 1.12},
      {"sequence": "ATCTGA", "binding signal": 1.21},
      {"sequence": "CTAGTT", "binding signal": 1.42},
      {"sequence": "AGTATC", "binding signal": 1.11},
      {"sequence": "CTTACC", "binding signal": 1.26},
      {"sequence": "AGGAAA", "binding signal": 1.31},
      {"sequence": "TTTCGA", "binding signal": 1.51},
      {"sequence": "TGGCAA", "binding signal": 1.22},
      {"sequence": "AAGTGG", "binding signal": 1.22},
      {"sequence": "CCCGGA", "binding signal": 2.61},
      {"sequence": "TATATA", "binding signal": 1.26},
      {"sequence": "AACGAA", "binding signal": 1.15},
      {"sequence": "ACTTTC", "binding signal": 1.59},
      {"sequence": "CTATAT", "binding signal": 1.35},
      {"sequence": "TAAACA", "binding signal": 1.19},
      {"sequence": "CATGAA", "binding signal": 1.03},
      {"sequence": "TGCGTA", "binding signal": 1.06},
      {"sequence": "CCTATC", "binding signal": 1.13},
      {"sequence": "GATCTT", "binding signal": 1.32},
      {"sequence": "GTATTC", "binding signal": 1.26},
      {"sequence": "GGCTCT", "binding signal": 1.23},
      {"sequence": "ACCAAC", "binding signal": 1.23},
      {"sequence": "GGTATT", "binding signal": 1.23}
    ]},
    {"target": "T2, ETS1 (UniProt P14921)", "T2 sequence": "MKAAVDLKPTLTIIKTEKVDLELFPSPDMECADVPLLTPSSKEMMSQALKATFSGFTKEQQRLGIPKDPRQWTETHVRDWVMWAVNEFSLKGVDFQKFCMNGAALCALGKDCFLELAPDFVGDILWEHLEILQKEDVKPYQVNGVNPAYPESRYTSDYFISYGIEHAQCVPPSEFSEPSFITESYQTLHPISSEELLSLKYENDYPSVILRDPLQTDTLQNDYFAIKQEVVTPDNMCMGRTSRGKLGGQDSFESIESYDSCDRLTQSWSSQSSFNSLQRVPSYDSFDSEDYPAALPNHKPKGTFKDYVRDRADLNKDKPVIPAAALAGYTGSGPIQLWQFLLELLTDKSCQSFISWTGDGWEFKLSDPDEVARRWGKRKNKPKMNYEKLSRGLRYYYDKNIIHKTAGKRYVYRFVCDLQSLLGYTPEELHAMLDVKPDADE", "test": "DAPPL (digital affinity profiling via proximity ligation, sequencing)", "conditions": "10 mM Tris-HCl pH 7.5, 50 mM NaCl, 1 mM DTT, 4% glycerol, room temperature, 30 min; GST-TFs on glutathione beads, 16-mer random dsDNA library, 0.1% …; high values mean tight binding; double strand, one strand shown; scale: fold enrichment (6-mer frequency, TF over GST control)", "values": [
      {"sequence": "AAGGAA", "binding signal": 1.23},
      {"sequence": "ATCTCT", "binding signal": 1.31},
      {"sequence": "AATCCC", "binding signal": 1.24},
      {"sequence": "CTAATC", "binding signal": 1.29},
      {"sequence": "CTGATC", "binding signal": 1.27},
      {"sequence": "CGCTTC", "binding signal": 2.05},
      {"sequence": "ACGAAC", "binding signal": 1.18},
      {"sequence": "ACTTTT", "binding signal": 1.32},
      {"sequence": "GATCTC", "binding signal": 1.24},
      {"sequence": "ATAGTA", "binding signal": 1.13},
      {"sequence": "CGTCCC", "binding signal": 1.27},
      {"sequence": "TGGCTT", "binding signal": 1.28},
      {"sequence": "TTTGGC", "binding signal": 1.25},
      {"sequence": "TTCACC", "binding signal": 1.36},
      {"sequence": "CTCATG", "binding signal": 1.23},
      {"sequence": "ATGGGT", "binding signal": 1.34},
      {"sequence": "TGCTTT", "binding signal": 1.05},
      {"sequence": "ATCTGA", "binding signal": 1.12},
      {"sequence": "CTAGTT", "binding signal": 1.3},
      {"sequence": "AGTATC", "binding signal": 1.16},
      {"sequence": "CTTACC", "binding signal": 1.31},
      {"sequence": "AGGAAA", "binding signal": 1.41},
      {"sequence": "TTTCGA", "binding signal": 1.51},
      {"sequence": "TGGCAA", "binding signal": 1.31},
      {"sequence": "AAGTGG", "binding signal": 1.17},
      {"sequence": "CCCGGA", "binding signal": 2.74},
      {"sequence": "TATATA", "binding signal": 1.39},
      {"sequence": "AACGAA", "binding signal": 1.14},
      {"sequence": "ACTTTC", "binding signal": 1.5},
      {"sequence": "CTATAT", "binding signal": 1.57},
      {"sequence": "TAAACA", "binding signal": 1.24},
      {"sequence": "CATGAA", "binding signal": 1.03},
      {"sequence": "TGCGTA", "binding signal": 1.12},
      {"sequence": "CCTATC", "binding signal": 1.17},
      {"sequence": "GATCTT", "binding signal": 1.2},
      {"sequence": "GTATTC", "binding signal": 1.36},
      {"sequence": "GGCTCT", "binding signal": 1.2},
      {"sequence": "ACCAAC", "binding signal": 1.22},
      {"sequence": "GGTATT", "binding signal": 1.28}
    ]}
  ]
}
